Results are given in words; binding and its absence hold for the method and conditions named. In cells and extracts the contact can be indirect. A yes stands for co-enrichment or nearness to the bait. Other partners may have been found.
Target: LmBrf1-PTP (Leishmania major TFIIB-related factor 1 with a C-terminal PTP tag) (Leishmania major) (UniProt Q4QA51)
Assay: affinity purification with mass spectrometry; tandem affinity purification of LmBrf1-PTP from whole-cell extracts of mid-log L. major promastigotes (IPP-150 buffer: 10 mM Tris-HCl pH 8.0, 150 mM NaCl, 0.1% NP-40; Triton X-100 lysis): IgG Sepharose, TEV protease elution, anti-Prot C matrix, EGTA elution, 4 °C; SDS-PAGE, in-gel tryptic digestion, LC-MS/MS; three experiments; mock purification with wild-type extract as control

The chains behind the UniProt entries cited, without tags or fusion partners. Where a name states a change or a piece, a line headed by the entry shows the natural chain unless it says otherwise.
UniProt Q4Q2T4: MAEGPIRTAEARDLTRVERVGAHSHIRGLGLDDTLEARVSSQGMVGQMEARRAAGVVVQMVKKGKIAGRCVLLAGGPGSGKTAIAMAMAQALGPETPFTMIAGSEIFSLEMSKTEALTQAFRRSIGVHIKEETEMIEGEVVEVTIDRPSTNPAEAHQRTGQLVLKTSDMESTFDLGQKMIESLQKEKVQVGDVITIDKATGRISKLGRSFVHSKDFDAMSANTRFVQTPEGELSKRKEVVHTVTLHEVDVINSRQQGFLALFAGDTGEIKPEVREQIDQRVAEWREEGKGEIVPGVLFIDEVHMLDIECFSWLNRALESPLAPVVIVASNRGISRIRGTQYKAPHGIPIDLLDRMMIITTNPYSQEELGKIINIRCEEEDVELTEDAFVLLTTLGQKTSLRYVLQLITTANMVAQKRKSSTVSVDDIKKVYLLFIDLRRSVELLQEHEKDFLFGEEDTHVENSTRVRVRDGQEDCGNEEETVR
UniProt Q4Q1H0: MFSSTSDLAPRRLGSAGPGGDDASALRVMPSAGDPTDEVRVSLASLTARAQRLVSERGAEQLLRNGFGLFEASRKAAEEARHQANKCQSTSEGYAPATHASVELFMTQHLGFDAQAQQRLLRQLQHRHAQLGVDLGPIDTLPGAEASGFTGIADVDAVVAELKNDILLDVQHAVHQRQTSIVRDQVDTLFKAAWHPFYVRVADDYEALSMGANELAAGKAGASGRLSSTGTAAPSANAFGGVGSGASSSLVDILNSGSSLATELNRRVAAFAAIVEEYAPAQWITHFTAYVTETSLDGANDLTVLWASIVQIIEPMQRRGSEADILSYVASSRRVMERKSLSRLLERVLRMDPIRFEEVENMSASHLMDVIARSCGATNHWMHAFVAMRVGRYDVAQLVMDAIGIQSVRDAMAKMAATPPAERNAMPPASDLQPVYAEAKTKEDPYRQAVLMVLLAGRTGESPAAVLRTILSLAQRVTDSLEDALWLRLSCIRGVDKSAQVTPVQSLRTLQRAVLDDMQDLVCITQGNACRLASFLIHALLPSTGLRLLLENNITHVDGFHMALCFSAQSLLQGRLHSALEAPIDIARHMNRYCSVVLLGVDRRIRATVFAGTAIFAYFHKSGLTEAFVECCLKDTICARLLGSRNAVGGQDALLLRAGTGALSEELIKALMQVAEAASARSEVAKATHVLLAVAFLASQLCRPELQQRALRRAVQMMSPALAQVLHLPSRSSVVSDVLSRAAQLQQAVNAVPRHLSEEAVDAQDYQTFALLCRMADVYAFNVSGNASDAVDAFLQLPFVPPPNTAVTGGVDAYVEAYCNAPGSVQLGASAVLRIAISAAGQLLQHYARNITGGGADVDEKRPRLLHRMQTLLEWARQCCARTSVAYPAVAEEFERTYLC
UniProt Q4Q5I7: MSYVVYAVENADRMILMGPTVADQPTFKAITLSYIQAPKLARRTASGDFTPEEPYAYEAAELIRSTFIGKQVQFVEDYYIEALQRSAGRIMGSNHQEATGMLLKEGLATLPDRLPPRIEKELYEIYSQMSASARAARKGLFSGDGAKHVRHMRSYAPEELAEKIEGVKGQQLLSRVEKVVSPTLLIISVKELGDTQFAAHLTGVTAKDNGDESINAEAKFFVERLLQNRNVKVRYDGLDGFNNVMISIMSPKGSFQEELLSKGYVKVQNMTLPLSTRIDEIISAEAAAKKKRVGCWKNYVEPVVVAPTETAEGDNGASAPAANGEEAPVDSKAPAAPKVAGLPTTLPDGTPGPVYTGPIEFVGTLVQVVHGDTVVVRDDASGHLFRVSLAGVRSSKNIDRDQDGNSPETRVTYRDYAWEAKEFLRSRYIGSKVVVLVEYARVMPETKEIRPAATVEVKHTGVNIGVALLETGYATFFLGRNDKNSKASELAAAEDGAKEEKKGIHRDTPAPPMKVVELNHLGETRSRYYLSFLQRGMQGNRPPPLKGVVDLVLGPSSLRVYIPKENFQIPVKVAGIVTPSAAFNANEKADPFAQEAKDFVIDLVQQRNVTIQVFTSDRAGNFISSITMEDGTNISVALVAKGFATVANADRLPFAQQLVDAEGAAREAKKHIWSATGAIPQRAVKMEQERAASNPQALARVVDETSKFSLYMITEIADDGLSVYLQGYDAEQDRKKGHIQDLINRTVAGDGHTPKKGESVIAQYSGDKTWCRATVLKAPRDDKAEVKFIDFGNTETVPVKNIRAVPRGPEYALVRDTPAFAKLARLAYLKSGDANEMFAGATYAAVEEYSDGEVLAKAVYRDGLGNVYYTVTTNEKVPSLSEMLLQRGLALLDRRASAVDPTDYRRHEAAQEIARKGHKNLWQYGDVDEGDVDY
UniProt Q4Q3Q3: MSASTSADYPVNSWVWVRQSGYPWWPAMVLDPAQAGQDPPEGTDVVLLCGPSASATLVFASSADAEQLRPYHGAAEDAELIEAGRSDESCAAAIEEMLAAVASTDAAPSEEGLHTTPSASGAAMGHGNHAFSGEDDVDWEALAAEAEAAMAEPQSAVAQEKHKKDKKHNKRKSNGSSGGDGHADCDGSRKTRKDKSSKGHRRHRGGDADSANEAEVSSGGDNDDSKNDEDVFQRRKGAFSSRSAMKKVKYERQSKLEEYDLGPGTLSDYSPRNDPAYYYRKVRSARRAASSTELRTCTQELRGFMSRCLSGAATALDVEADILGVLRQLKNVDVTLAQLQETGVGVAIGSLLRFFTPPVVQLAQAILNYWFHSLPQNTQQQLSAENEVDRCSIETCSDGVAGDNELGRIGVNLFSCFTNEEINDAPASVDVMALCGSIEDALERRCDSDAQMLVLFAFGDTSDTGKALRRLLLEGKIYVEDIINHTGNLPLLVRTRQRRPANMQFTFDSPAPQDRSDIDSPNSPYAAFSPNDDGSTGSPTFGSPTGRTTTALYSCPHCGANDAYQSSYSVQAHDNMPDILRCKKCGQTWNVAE
UniProt Q4Q3Q4: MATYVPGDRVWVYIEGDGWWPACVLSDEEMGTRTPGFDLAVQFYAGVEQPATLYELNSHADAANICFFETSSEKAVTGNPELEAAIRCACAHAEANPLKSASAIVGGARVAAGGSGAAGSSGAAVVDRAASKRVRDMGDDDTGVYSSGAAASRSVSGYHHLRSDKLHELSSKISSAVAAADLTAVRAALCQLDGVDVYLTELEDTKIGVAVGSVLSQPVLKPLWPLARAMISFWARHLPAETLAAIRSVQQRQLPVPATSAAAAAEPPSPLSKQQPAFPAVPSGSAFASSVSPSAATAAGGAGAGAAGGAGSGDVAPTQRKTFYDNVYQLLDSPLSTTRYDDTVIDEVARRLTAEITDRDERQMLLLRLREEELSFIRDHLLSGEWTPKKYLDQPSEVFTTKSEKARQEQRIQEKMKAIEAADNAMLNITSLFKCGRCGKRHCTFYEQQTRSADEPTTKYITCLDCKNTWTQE
UniProt Q4Q3H2: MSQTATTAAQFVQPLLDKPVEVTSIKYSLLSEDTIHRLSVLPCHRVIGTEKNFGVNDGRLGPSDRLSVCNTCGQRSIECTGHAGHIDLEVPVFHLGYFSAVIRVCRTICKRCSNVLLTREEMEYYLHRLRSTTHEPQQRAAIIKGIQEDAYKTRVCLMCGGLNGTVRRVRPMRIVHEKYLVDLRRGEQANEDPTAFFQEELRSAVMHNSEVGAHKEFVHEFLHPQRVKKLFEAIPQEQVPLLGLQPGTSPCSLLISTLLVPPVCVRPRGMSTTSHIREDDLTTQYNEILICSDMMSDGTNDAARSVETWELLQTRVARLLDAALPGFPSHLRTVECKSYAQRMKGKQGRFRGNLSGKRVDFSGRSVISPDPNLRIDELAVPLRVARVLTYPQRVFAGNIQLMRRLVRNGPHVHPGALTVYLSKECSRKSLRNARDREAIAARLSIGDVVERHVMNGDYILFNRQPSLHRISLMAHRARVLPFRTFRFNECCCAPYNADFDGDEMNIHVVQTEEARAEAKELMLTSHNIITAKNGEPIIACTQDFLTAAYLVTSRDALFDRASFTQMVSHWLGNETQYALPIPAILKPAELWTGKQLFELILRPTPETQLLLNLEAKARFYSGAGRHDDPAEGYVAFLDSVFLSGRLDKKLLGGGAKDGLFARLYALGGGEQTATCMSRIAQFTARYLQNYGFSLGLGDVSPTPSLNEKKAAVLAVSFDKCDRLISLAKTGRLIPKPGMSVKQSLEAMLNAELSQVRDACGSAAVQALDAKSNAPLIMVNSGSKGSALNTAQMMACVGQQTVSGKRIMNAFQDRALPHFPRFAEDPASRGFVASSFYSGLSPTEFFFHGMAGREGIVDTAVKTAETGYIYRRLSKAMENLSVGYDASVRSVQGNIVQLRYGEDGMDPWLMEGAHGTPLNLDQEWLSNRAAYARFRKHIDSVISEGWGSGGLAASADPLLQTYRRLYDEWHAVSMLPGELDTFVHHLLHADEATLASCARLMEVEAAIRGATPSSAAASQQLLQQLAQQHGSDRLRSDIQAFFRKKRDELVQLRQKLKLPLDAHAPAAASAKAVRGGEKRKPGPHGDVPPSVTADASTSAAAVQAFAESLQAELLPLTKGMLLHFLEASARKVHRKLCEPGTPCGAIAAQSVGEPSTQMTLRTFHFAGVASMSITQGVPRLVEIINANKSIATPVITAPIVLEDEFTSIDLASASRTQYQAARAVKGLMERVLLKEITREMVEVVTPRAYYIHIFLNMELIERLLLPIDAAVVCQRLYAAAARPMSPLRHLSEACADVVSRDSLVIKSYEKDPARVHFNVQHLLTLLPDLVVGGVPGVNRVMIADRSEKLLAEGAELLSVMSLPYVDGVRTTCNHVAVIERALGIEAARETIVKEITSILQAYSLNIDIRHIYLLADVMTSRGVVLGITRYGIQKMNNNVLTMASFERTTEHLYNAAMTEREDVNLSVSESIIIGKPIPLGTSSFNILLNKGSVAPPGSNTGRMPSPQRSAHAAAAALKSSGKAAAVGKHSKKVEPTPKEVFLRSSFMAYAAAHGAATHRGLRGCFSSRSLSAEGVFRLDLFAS
UniProt Q4Q3M7: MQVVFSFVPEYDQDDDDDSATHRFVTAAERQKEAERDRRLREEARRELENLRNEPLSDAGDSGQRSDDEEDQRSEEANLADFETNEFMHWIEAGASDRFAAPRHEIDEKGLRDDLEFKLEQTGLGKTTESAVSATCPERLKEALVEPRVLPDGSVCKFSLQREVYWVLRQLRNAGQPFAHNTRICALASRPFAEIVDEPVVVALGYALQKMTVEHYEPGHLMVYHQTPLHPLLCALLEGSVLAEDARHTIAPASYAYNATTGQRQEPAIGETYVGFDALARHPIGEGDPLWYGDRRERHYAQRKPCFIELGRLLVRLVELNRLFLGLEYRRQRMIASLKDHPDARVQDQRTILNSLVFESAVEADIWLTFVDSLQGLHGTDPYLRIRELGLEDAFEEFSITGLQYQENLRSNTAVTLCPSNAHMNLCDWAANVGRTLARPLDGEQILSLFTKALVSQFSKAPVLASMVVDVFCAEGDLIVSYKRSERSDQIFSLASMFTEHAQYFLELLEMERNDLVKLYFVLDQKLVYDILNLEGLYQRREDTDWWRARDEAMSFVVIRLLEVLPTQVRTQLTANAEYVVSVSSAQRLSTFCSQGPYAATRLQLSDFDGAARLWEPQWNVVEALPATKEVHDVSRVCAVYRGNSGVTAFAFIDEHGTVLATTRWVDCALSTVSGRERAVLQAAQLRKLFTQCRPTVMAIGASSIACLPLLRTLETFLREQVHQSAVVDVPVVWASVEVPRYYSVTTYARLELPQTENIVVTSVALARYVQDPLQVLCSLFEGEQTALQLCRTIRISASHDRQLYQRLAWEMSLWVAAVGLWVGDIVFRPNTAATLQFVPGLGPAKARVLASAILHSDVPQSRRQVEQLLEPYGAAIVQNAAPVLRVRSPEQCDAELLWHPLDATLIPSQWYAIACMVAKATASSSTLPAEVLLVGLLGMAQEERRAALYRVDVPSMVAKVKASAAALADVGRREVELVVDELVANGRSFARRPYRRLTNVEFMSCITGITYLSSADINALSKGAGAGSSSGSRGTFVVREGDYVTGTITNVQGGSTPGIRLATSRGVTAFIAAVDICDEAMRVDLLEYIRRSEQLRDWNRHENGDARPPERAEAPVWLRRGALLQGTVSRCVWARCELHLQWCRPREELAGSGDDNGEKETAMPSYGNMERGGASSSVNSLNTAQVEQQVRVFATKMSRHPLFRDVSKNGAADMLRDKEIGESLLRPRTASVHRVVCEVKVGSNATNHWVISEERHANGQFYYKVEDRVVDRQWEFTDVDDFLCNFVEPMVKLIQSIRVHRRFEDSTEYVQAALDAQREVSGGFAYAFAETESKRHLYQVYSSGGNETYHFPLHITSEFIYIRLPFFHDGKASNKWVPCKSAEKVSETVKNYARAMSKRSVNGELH
UniProt Q4QJ78: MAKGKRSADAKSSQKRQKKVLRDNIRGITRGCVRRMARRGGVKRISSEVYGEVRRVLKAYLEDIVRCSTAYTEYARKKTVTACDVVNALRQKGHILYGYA

| binding | Substance |
| --- | --- |
| binds | KH domain-containing protein, putative (from UniProt E9ADB1) |
| binds | RPB2 (Pol II) (from UniProt Q4Q6P8) |
| binds | RuvB-like DNA helicase, putative (from UniProt Q4Q2T4) |
| binds | ATP-dependent RNA helicase SUB2, putative (from UniProt Q4QC38) |
| binds | Nucleoporin NUP96 (from UniProt Q4Q1H0) |
| binds | PAF1 complex subunit LEO1 (from UniProt E9AFA9) |
| binds | RNA-binding protein 42 (RNA-binding motif protein 42), putative (from UniProt Q4Q6Y1) |
| binds | PAF1 complex novel subunit (putative RTF1) (from UniProt Q4QFP6) |
| binds | RNA-binding protein-like protein (from UniProt Q4QII7) |
| binds | Cdc2-related kinase 3 (from UniProt O96526) |
| binds | Staphylococcal nuclease homolog/Tudor domain-containing protein, putative (from UniProt Q4Q5I7) |
| binds | La protein homolog (from UniProt Q4QCG1) |
| binds | TFIIIC subunit Tau131, putative (from UniProt Q4QGN6) |
| binds | Protein Mkt1, putative (from UniProt Q4Q6U6) |
| binds | 14-3-3 protein 1, putative (from UniProt Q4Q198) |
| binds | TFIIS-like (from UniProt Q4Q3Q3) |
| binds | Nucleoside diphosphate kinase B (from UniProt Q9U1E1) |
| binds | CCR4-NOT transcription complex subunit Not1 (from UniProt Q4QCD3) |
| binds | Proliferative cell nuclear antigen (PCNA), putative (from UniProt Q4QF35) |

| binding | Substance |
| --- | --- |
| binds | PAF1 complex novel subunit (from UniProt E9ADW9) |
| binds | Transcription elongation factor TFIIS (from UniProt Q4Q3Q4) |
| binds | RPC1 (Pol III) (from UniProt Q4Q3H2) |
| binds | PAF1 complex subunit CTR9 (from UniProt E9AEB7) |
| binds | ATP-dependent RNA helicase FAL1, putative (from UniProt Q4Q8B2) |
| binds | TATA-binding protein (from UniProt Q4QD71) |
| binds | DNA replication licensing factor MCM4, putative (from UniProt Q4QI01) |
| binds | DNA replication licensing factor MCM2, putative (from UniProt Q4Q8I2) |
| binds | FACT complex subunit SPT16 (from UniProt E9ADK4) |
| binds | ALBA-domain protein 3 (from UniProt Q4Q2T7) |
| binds | RPB1 (Pol II) (from UniProt Q4Q600) |
| binds | Stress-induced protein STI1 (from UniProt Q4QI58) |
| binds | tRNA-binding domain-containing protein (from UniProt Q4QBU9) |
| binds | RPB5z (Pol I) (from UniProt Q4QDW3) |
| binds | CCR4-NOT transcription complex subunit Not5 (from UniProt Q4Q9Q5) |
| binds | Transcription elongation factor SPT6 (from UniProt Q4Q3M7) |
| binds | High-mobility group protein TDP1 (from UniProt E9ADT8) |
| binds | Replication factor C subunit 3, putative (from UniProt Q4Q084) |
| binds | Histone H4 (from UniProt Q4QJ78) |

| Substance | binding |
| --- | --- |
| META domain-containing protein (from UniProt Q4QEA3) | binds |
| Protein phosphatase 2C (from UniProt Q4QA19) | binds |
| Prohibitin, putative (from UniProt E9AEI4) | binds |
| Regulatory subunit of protein kinase A-like (from UniProt Q4Q2R2) | binds |
| Mitogen-activated protein kinase 10, putative (from UniProt Q4QHJ8) | binds |

Source: paper PMC7920299
